Data on 6 molecules can be found in article PMC6821256.

Changes are numbered by the printed parent chain. These are yes or no findings as the source states them, for the method shown. For some assays here: In cells and extracts the contact can be indirect. Some entries that bind do so weakly or less than the wild type. Tags and fused reporters may be left off the sequences shown.

In experiment [1] the target is T1, Rec15 full-length (FL, 1-180; yeast two-hybrid construct) (Schizosaccharomyces pombe) (UniProt Q09094).
T1 sequence: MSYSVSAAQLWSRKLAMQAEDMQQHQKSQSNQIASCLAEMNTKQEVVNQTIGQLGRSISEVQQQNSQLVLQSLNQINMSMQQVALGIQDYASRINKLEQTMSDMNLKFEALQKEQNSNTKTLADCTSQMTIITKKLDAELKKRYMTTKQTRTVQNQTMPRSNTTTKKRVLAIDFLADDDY
As to the kind of experiment: two-hybrid; S. cerevisiae AH109, pGADT7 and pGBKT7 plasmids; growth on SD without leucine, tryptophan, histidine and adenine, 5 days at 30°C.

Experiment [2] has as its target T2, Rec10 (yeast two-hybrid construct) (Schizosaccharomyces pombe) (UniProt Q09823).
T2 sequence: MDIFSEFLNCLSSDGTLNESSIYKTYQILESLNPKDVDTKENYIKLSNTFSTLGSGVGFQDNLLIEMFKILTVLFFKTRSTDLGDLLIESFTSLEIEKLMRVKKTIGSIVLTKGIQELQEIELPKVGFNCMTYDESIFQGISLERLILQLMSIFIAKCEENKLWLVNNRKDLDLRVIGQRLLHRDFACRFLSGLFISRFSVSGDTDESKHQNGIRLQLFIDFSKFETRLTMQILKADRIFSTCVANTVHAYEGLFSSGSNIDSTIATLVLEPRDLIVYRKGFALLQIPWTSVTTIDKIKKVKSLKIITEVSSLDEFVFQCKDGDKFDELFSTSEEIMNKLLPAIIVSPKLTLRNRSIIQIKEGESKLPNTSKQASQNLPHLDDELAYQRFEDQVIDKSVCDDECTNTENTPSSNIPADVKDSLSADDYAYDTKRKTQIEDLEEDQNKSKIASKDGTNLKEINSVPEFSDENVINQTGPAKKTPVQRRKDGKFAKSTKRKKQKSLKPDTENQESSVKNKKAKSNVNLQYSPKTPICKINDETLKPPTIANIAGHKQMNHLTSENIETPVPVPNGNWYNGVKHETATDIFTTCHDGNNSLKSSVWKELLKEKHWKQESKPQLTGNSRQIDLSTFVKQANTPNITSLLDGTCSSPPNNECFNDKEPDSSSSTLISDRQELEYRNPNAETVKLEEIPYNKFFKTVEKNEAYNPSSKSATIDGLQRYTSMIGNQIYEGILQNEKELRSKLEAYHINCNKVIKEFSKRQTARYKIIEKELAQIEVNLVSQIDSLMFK
The experiment is described as above.

The target of experiment [3] is T3, Rec15-FLAG (Schizosaccharomyces pombe) (UniProt Q09094).
T3 sequence: T1 sequence
As to the kind of experiment: co-IP; cross-linked co-IP: S. pombe cells treated with 1% formaldehyde 4 h after meiotic induction; anti-FLAG IP after micrococcal nuclease treatment.

Experiment [4] deals with T4, Rec15ΔCT-FLAG (Schizosaccharomyces pombe) (UniProt Q09094).
T4 sequence: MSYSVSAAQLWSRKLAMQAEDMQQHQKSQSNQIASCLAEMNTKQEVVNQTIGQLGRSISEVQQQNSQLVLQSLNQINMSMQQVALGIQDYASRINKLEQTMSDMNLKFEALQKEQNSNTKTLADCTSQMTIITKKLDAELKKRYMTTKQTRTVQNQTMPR
The experiment is described as above.

Experiment [5] deals with T5, Rec10-P348G K349G (expressed in S. pombe) (Schizosaccharomyces pombe) (UniProt Q09823).
T5 sequence: T2 sequence with P348G, K349G
Kind of experiment: co-IP; S. pombe cells harvested 4 h after meiotic induction; immunoprecipitation of the FLAG-tagged Rec10, blot for Hop1-HA; not cross-linked.

Experiment [6] addresses T6, Rec10-FLAG (Schizosaccharomyces pombe) (UniProt Q09823).
T6 sequence: T2 sequence
The experiment is described as above.

Experiment [7] concerns the target T7, Rec10-E309A (expressed in S. pombe) (Schizosaccharomyces pombe) (UniProt Q09823).
T7 sequence: T2 sequence with E309A
Described as above.

The target of experiment [8] is T8, Rec10-E309A (yeast two-hybrid construct) (Schizosaccharomyces pombe) (UniProt Q09823).
T8 sequence: T2 sequence with E309A
Kind of experiment: two-hybrid; S. cerevisiae AH109, pGADT7 and pGBKT7 plasmids; growth on SD without leucine, tryptophan, histidine and adenine, 5 days at 30°C.

The target in experiment [9] is T9, Rec10-P348G K349G (yeast two-hybrid construct) (Schizosaccharomyces pombe) (UniProt Q09823).
T9 sequence: T2 sequence with P348G, K349G
The description is as above.

Experiment [10] deals with T10, Mde2 (yeast two-hybrid construct) (Schizosaccharomyces pombe) (UniProt P87309).
T10 sequence: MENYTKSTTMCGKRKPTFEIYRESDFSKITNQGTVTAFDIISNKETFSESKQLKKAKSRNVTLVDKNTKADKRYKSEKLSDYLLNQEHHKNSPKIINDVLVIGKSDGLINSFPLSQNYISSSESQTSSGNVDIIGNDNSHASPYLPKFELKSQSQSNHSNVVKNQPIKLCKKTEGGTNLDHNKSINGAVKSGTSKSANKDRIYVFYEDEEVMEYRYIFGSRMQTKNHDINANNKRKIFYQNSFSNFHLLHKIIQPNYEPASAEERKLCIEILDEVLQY
The description is as above.

B1: Hop1 full-length (yeast two-hybrid construct) (protein, UniProt Q9P7P2 1-528)
chain: MNSYKEEILQTKSDFTLKNLIFFAISTLCYKRALFNENCYKKVNFEIEHFKGADFDCQLKPTVVSLQAGVDKEADSFLEMMKTYIFSLVSMKVPFTVYLIISSQCKSILEDDAVEKEIFSFTINPGSEEKICCESFVSYQRSERFVIKLFLSGNVKTECKDEEKVVQIITKMERFQLSKGEATKAGVFLNTVETKDCMSWLNRGEFKDIVSFYESNNGIAISHCSHAFVPISTEKIMINKESSLFDSQEKIDSQLEKFLQPLKYDEIGSTQILDEQSVEKSLSQGKCEKMQNESRGLREIKNNNPCEEVKKSNWLKKNISGSDKVDKAEKKKALLNCECGDSTEDSEMFQCERCDGWVHCACYGFESDSDPRQPNQLLCYTCLLVDSESSLYDRMTMLVAYRRAIRCIWASEYQGFQKLAARLNCSYADAKRIEERLVNENIIYKEKKRKWIYFTNKSPEMVSYLREKYFTPSRWISHLNFQNYRQENQRVNMRSFLRPERMEVIERPKKVSKTSNTKETDTMKPLRI
Regarding B1, the binding entry in [1] and in [2] was “binds” each time.

B2: Hop1-HA (protein, UniProt Q9P7P2 1-528)
chain: B1 chain
For the molecule B2, the binding result in experiment [3] was “binds”; in experiment [4], “binds weakly”; in [5], “binds”; in experiment [6], “binds”; in [7], “binds”.

B3: Rec25 (yeast two-hybrid construct) (protein, UniProt Q9C115 1-150)
chain: MVKGSVTNTSSIVKQFEKSSIKHETETIAFAKQFINECIREFQEQKDNVVEEKNTDQNHQNQNQEGVIIEIYQELLQKVDLISSELRQNLSSLQLRFQEVERDTGHDLLNVLNSLSQEARLAQKVLEEDGSQQGSQLIQGLLTCFQSTGN
Take B3: the binding entry in experiment [2], in experiment [8] and in experiment [9] was “binds” throughout.

B4: Hop1 N fragment (1-300) (domain or fragment, UniProt Q9P7P2 1-300)
chain: MNSYKEEILQTKSDFTLKNLIFFAISTLCYKRALFNENCYKKVNFEIEHFKGADFDCQLKPTVVSLQAGVDKEADSFLEMMKTYIFSLVSMKVPFTVYLIISSQCKSILEDDAVEKEIFSFTINPGSEEKICCESFVSYQRSERFVIKLFLSGNVKTECKDEEKVVQIITKMERFQLSKGEATKAGVFLNTVETKDCMSWLNRGEFKDIVSFYESNNGIAISHCSHAFVPISTEKIMINKESSLFDSQEKIDSQLEKFLQPLKYDEIGSTQILDEQSVEKSLSQGKCEKMQNESRGLREI
Regarding B4, the binding result in experiment [2] is recorded as “binds”.

B5: Rec15ΔCT (1-160; yeast two-hybrid construct) (domain or fragment, UniProt Q09094 1-160)
chain: T4 sequence
In the case of B5, the binding result in experiment [1] and in experiment [10] was “binds” in each case.

B6: Hop1 C fragment (301-527) (domain or fragment, UniProt Q9P7P2 301-527)
chain: KNNNPCEEVKKSNWLKKNISGSDKVDKAEKKKALLNCECGDSTEDSEMFQCERCDGWVHCACYGFESDSDPRQPNQLLCYTCLLVDSESSLYDRMTMLVAYRRAIRCIWASEYQGFQKLAARLNCSYADAKRIEERLVNENIIYKEKKRKWIYFTNKSPEMVSYLREKYFTPSRWISHLNFQNYRQENQRVNMRSFLRPERMEVIERPKKVSKTSNTKETDTMKPLR
On to B6, for which the binding result in [1] is “binds”.
